In PubChem BioAssay AID1347426 (Functional Genomics Laboratory (NCATS/FGL), 2020) one finds median seed-adjusted z-score data, which are given here for 68 sequences.

Screen size: about 31,000 sequences; about 1,400 (4.5%) were called active.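 Rule for the calls: active = median seed-adjusted z-score above 1 or below -1; inactive = the rest.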 Some of the results follow.

The experiment can be described thus: Novel Modifiers of Survival Motor Neuron (SMN) Protein: Gene Identification via Genome-wide siRNA Screen.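 Note: luminescence tracks full-length SMN protein made from the SMN2 reporter.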 The note with it: HEK293T SMN2-luciferase reporter, siRNA knockdown, 72 h; actives lie on both sides. The method, boiled down: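 Genome-wide siRNA screen (10418 genes, 3 siRNAs each, 1 pmol per well) by reverse transfection in HEK293T cells stably carrying an SMN2-luciferase reporter; luminescence after 72 hours, normalized to negative-control siRNA, log10-transformed, MAD-scored.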
Take AGACCGUCACCUCCUUUUATT against BCKDK: the median seed-adjusted z-score was inactive: 0.

For CGGCAAAGAUCAUCCAUAUTT against SMYD2, the median seed-adjusted z-score was inactive: -0.393.

Turning to GCCUUUCAGUCAUCGCGCATT against PLXND1, the median seed-adjusted z-score was inactive: -0.064. For the sequence CGCAAAAAGUGGUCGUGGATT against TRMT1, the median seed-adjusted z-score was inactive: -0.224. Take GCUGCGAGCUCGAAACUUUTT against SEC14L4: the median seed-adjusted z-score is inactive: -0.714. ACCUGUUCAUGGUGCAUCATT against CHST13: the median seed-adjusted z-score was inactive: -0.447.

Take CGGGAGAGAUUAGAGCUCATT against PDE11A: the median seed-adjusted z-score was inactive: 0. The result for AGUUUGCAAAGUUCGCUUUTT against GPR162 reads inactive: 0.195; that for CCUGAUUAUUUAGACUCCATT against CMKLR1, inactive: -0.704. In the case of GCAAGAUAACAAUUGAUAUTT against ANKRD30A, the median seed-adjusted z-score was inactive: 0.259. Take GGAUUCACACGGGAAUUAATT against ZNF649: the median seed-adjusted z-score was inactive: 0.259. Consider GGAUUGAUGUUAGUACUCATT against COPS5, for which the median seed-adjusted z-score is inactive: -0.124. The result for GAAGAUUCGCCGUUACAAATT against HDGF2 reads inactive: 0. For GGAGCGGCACAGUAUGAAATT against MYO1E, the median seed-adjusted z-score is inactive: -0.02.

Consider CGUUAACAGGCAGCAUAAATT against TICAM2, for which the median seed-adjusted z-score is inactive: -0.256.

On to GUCUCUAGAUCAUUCUGUUTT against LHX3, for which the median seed-adjusted z-score is inactive: 0.622. Turning to GAUCUACACUUGUUCGGCATT against ZNF132, the median seed-adjusted z-score is inactive: -0.484. As to GCUUCUACCUUGAGGUUAATT against ZNF549, the median seed-adjusted z-score was inactive: 0.0114. Regarding GGAAUCAGUUGCAUGAAUATT against PPA1, the median seed-adjusted z-score was inactive: -0.0865. Consider CCACCGCAGUGACAACAGUTT against GPR20, for which the median seed-adjusted z-score is inactive: 0.442. For CCAGCUGCCUACAAAGACATT against CLDN14, the median seed-adjusted z-score was inactive: -0.456. In the case of CCAUCGGAAUCUUGACGAATT against MX1, the median seed-adjusted z-score is active: -1.49.

GAUUAUCCCUGGUCCAAAATT against MYBPC1: the median seed-adjusted z-score is inactive: 0.295. With GACGAACACUUUCUCGUAUTT against SLC26A4, the median seed-adjusted z-score is inactive: 0.274. Take ACAUGACACUGUGCAGGAATT against GPR120: the median seed-adjusted z-score was inactive: -0.578. Turning to UGGACUUCAUGAGUAUAAATT against PCTP, the median seed-adjusted z-score is inactive: 0.446.

Turning to GGAGGACCAUCGAGCUAAATT against GRIK5, the median seed-adjusted z-score is inactive: -0.242.

For GGAUCGAGGGAAUCAAGAATT against ITPKB, the median seed-adjusted z-score was inactive: -0.142. Consider CAAGAAAAGUUAUAAGUUUTT against CYP3A7, for which the median seed-adjusted z-score is inactive: -0.107. In the case of GGAUGUCCAAUUACCAAAATT against ZNF684, the median seed-adjusted z-score was inactive: 0.189. Regarding CGUUUGUCCGUGCUAGAAATT against MTHFD1L, the median seed-adjusted z-score is inactive: -0.0577.

With GACCCUCGGCGUCAUCUUUTT against NUDT14, the median seed-adjusted z-score was inactive: 0.479. Then UGUGAAAUGUUUGUCUUUUTT against NR2F6, with inactive: -0.681.

Take GGGAUUCGAUGGAUUCUUUTT against PRICKLE1: the median seed-adjusted z-score is inactive: -0.486. The result for GGAGGAACUCAGGAACAAATT against CYB5R3 reads inactive: -0.901; that for CACUCAGCGUGGACCAUUUTT against HCN3, inactive: 0.301; that for GGGUUAGUGGAGACCUUUATT against ATPAF1, inactive: 0.393. On to CAAAAUCGAAUGAAGCUAATT against ERC1, for which the median seed-adjusted z-score is inactive: 0.415.

For CAACCAGAGCGUGAAGAAATT against SNRPN, the median seed-adjusted z-score is inactive: -0.571. With CCAGGACUCAGAUUCCUCATT against CPEB1, the median seed-adjusted z-score is inactive: -0.349. In the case of AGCUCUUUGGAUUCACUGATT against DDX11, the median seed-adjusted z-score was inactive: 0. For GCUAUUGCCCGGUAAGAAATT against ACPL2, the median seed-adjusted z-score is inactive: 0.0392. Turning to GGAUGUAACAUACUCCUAUTT against ODF1, the median seed-adjusted z-score is inactive: 0.912.

For the sequence AGUCUGUAGUGUUCAUCUATT against TWF2, the median seed-adjusted z-score is inactive: 0.303. Take GGAACGUACUGGGACAACUTT against TINAGL1: the median seed-adjusted z-score was inactive: -0.059. For CCGGCUUCGUUUCAUGAAATT against CD8B, the median seed-adjusted z-score was inactive: 0.174.

Turning to CCAUAGACCUCAAAAACGATT against TRIM25, the median seed-adjusted z-score is inactive: 0.859. Consider CCUUCGUAGUGAUCUCAUUTT against BAZ1B, for which the median seed-adjusted z-score is inactive: 0.00593.

For GCUGUGCCUUAUAACCGAATT against LRRK2, the median seed-adjusted z-score is inactive: -0.671. The result for AGGUCUGGACGACAACUAUTT against MST1 reads active: -1.47; that for GGAAUGACAAGGUACGUUUTT against TXK, inactive: -0.109. Then ACCGCUUCAUGUCUGCGUATT against SF3A2, with active: -1.7; and CCAUCUCAUUGUCUAAAUATT against PTGIR, with inactive: -0.0806; and CGGGAUGAACGGAUUGAAATT against COL18A1, with inactive: -0.441. Then GAAUAAAAACGACCUCUUUTT against LZTR1, with inactive: 0.293; and GAGACAGAAACAAACCUUUTT against FKBP1B, with inactive: -0.561; and CACUCUGUCUAGAUACUCATT against LSM11, with inactive: -0.873. Take GCCCUUACCAUAUUGGUCATT against 6-Mar: the median seed-adjusted z-score was inactive: -0.483. On to CCACCCUGGUAGAUGAACATT against PGA5, for which the median seed-adjusted z-score was inactive: -0.149.

As to GGAACAUUUUCUUCGCAGATT against IREB2, the median seed-adjusted z-score was inactive: 0. Regarding CACUAACAGUAGCGAAGGATT against HOXC8, the median seed-adjusted z-score is inactive: -0.0285. Take GGAUGUACGUGAUAUGUAATT against SENP8: the median seed-adjusted z-score is inactive: 0. For the sequence UCAUAGAAAUUACACCCAATT against THBD, the median seed-adjusted z-score was inactive: -0.16. The result for CCGCUUCCCUCAAGAGUAATT against RPL4 reads inactive: 0.573. As to GAAUUCGUGUUCAUACUUUTT against SEC24A, the median seed-adjusted z-score was inactive: 0.038. Then GGUAUUAUCAAAACCAGUATT against DDX19A, with inactive: 0.183; and GGUUGAUCGAUGUCAGUCATT against RIOK3, with inactive: 0.0267; and CAGACCUACUUAGAACAGATT against PARP3, with inactive: -0.0383.
